Laboratory results taken from PubChem BioAssay AID330 (DTP/NCI, 2004).
The list is a part of this screen's results and no random one: it gathers tests that were run many times, whatever their T/C, doses with no T/C, and many T/C values between a quarter and a half above the control. Further doses and runs are listed elsewhere. T/C is the treated group as % of the vehicle group. Some entries give survivors of the animals treated and no T/C: the source holds a T/C of zero for them, seemingly a mark for toxic or unscored doses. Some survivor counts are full or nearly so, which does not show that the dose was tolerated: the source hardly ever lists a survival T/C far under the control, and the zero likely stands for such cases as well. Survivors were counted at the toxicity check, usually on the fifth day, unless a day is given; later deaths do not show. Schedule codes are those of the source, taken here to give the interval after Q, in days (D) or hours (H), and the number of doses after X. Some entries were tested several times; the values are given in rising order. For survival time, this PubChem deposit counts one and a half times the control or more as active, and values a quarter to a half above the control carry no call in these data; other NCI protocols may use other cut-offs. Some T/C values are followed by the survivors on the day toxicity was checked, most often the fifth; where none is given, no animal had died by that day.

System: P388 leukemia ip, CD2F1 mice, survival T/C
Assay: NCI In Vivo Anticancer Drug Screen. Data for tumor model P388 Leukemia (intraperitoneal) in CD2F1 (CDF1) mice
Conditions: T/C endpoint: median survival time, higher T/C = longer survival
[1] = dose: 200.0 mg/kg/injection, schedule: Q01DX009 (ip), vehicle: water
[2] = dose: 400.0 mg/kg/injection, schedule: Q01DX009 (ip), vehicle: water
[3] = dose: 400.0 mg/kg/injection, schedule: Q01DX009 (ip), vehicle: saline with Tween-80
[4] = dose: 100.0 mg/kg/injection, schedule: Q01DX005 (ip), vehicle: saline with Tween-80
[5] = dose: 200.0 mg/kg/injection, schedule: Q01DX005 (ip), vehicle: saline with Tween-80
[6] = dose: 100.0 mg/kg/injection, schedule: Q01DX009 (ip), vehicle: saline with Tween-80
[7] = dose: 200.0 mg/kg/injection, schedule: Q01DX009 (ip), vehicle: saline with Tween-80
[8] = dose: 100.0 mg/kg/injection, schedule: Q01DX005 (ip), vehicle: Klucel (hydroxypropylcellulose) (HPC)
[9] = dose: 200.0 mg/kg/injection, schedule: Q01DX009 (ip), vehicle: saline
[10] = dose: 240.0 mg/kg/injection, schedule: Q01DX005 (ip), vehicle: saline with Tween-80
[11] = dose: 200.0 mg/kg/injection, schedule: Q04DX003 (ip), vehicle: saline with Tween-80
[12] = dose: 25.0 mg/kg/injection, schedule: Q01DX009 (ip), vehicle: Klucel (hydroxypropylcellulose) (HPC)
[13] = dose: 50.0 mg/kg/injection, schedule: Q01DX009 (ip), vehicle: Klucel (hydroxypropylcellulose) (HPC)
[14] = dose: 100.0 mg/kg/injection, schedule: Q01DX009 (ip), vehicle: Klucel (hydroxypropylcellulose) (HPC)
[15] = dose: 200.0 mg/kg/injection, schedule: Q01DX009 (ip), vehicle: Klucel (hydroxypropylcellulose) (HPC)

Compound: CCN(CC)CCCC(C)NCC#CCNC(C)CCCN(CC)CC (stereo not drawn)
- survivor count (dose: 25.0 mg/kg/injection, schedule: Q01DX009 (ip), vehicle: water): 1 of 6 and 3 of 6
- survivor count (dose: 50.0 mg/kg/injection, schedule: Q01DX009 (ip), vehicle: water): 0 of 6
- survivor count (dose: 100.0 mg/kg/injection, schedule: Q01DX009 (ip), vehicle: water): 0 of 6
- survivor count [1]: 0 of 6
- survivor count [2]: 0 of 6

Compound: CCC(O)(CC(=O)O)c1ccccc1 (stereo not drawn)
- survivor count [3]: 0 of 6

Compound: CCN(CC)CCCC(C)N=C(Nc1ccccc1)c1ccc(Cl)cc1 (stereo not drawn)
- survivor count (dose: 200.0 mg/kg/injection, schedule: Q01DX005 (ip), vehicle: saline): 1 of 5

Compound: Nc1nc2nc(N)[nH]c2c(=O)[nH]1
- T/C [4]: 128 and 148 % of control
- survivor count [4]: 3 of 6
- survivor count [5]: 6 of 6

Compound: NC(=O)C1CCCN1C(=O)C1CCCN(Cc2ccc(CN3CCCC(C(=O)N4CCCC4C(N)=O)C3)cc2)C1 (stereo not drawn)
- survivor count (dose: 240.0 mg/kg/injection, schedule: Q01DX005 (ip), vehicle: saline): 2 of 6

Compound: NC(=S)NNC(=O)C(Cc1ccccc1)NC(=O)OCc1ccccc1 (stereo not drawn)
- survivor count [6]: 3 of 6
- survivor count [7]: 0 of 6

Compound: CN(C)c1ccc2nc(/C=N/NC(N)=S)ccc2c1
- survivor count (dose: 400.0 mg/kg/injection, schedule: Q04DX002 (ip), vehicle: distilled water + Tween-80 + alcohol): 0 of 6

Compound: O=C1NC(c2ccccc2)(c2ccccc2)C(=O)N1CCS
- T/C (dose: 50.0 mg/kg/injection, schedule: Q04DX003 (ip), vehicle: Klucel (hydroxypropylcellulose) (HPC)): 137 % of control

Compound: Cc1ccc(NC(=O)Oc2ccc(F)cc2Cl)c([N+](=O)[O-])c1
- survivor count [7]: 4 of 6

Compound: COc1cc(OC)c(/C=N/Nc2cc(C)nc3cc4c(cc23)OCO4)c(OC)c1
- survivor count (dose: 50.0 mg/kg/injection, schedule: Q01DX005 (ip), vehicle: Klucel (hydroxypropylcellulose) (HPC)): 0 of 6
- survivor count [8]: 0 of 6
- survivor count (dose: 200.0 mg/kg/injection, schedule: Q01DX005 (ip), vehicle: Klucel (hydroxypropylcellulose) (HPC)): 0 of 6

Compound: COc1ccc(OC)c(/C=C/C2=C(C)C(=O)CC(c3cc(OC)ccc3OC)C2C)c1 (stereo not drawn)
- survivor count (dose: 400.0 mg/kg/injection, schedule: Q04DX003 (ip), vehicle: Klucel (hydroxypropylcellulose) (HPC)): 6 of 6

Compound: O=C(Nc1cccc(Cl)c1)N1CC1
- survivor count [7]: 0 of 6
- survivor count [3]: 0 of 6

Compound: [N-]=[N+]=NC(=O)c1cnn(Cc2ccccc2)c1N
- survivor count (dose: 400.0 mg/kg/injection, schedule: Q01DX001 (ip), vehicle: saline with Tween-80): 1 of 6

Compound: CCCC[P+](CCCC)(CCCC)CCN1C(=O)c2ccccc2C1=O
- survivor count [1]: 0 of 6
- survivor count [2]: 0 of 6

Compound: CC(=O)CN1CCSC1=N
- survivor count (dose: 200.0 mg/kg/injection, schedule: Q01DX001 (ip), vehicle: saline): 3 of 6
- survivor count (dose: 400.0 mg/kg/injection, schedule: Q01DX001 (ip), vehicle: saline): 0 of 6

Compound: CN1ON(c2ccc(Cl)c(Cl)c2)OC1=O
- survivor count (dose: 100.0 mg/kg/injection, schedule: Q01DX009 (ip), vehicle: saline): 6 of 6
- survivor count [9]: 6 of 6

Compound: O=C1C(CO)=C[C@H](O)[C@@]2(CO)O[C@@H]12
- survivor count (dose: 200.0 mg/kg/injection, schedule: Q04DX002 (ip), vehicle: saline): 0 of 6

Compound: CCCOC1=NC2=NC(N3CCCC3)=NC3=C(Cl)C=C(Cl)C(=N1)N23
- survivor count (dose: 200.0 mg/kg/injection, schedule: Q04DX002 (ip), vehicle: Klucel + Tween-80): 0 of 6
- survivor count (dose: 400.0 mg/kg/injection, schedule: Q04DX002 (ip), vehicle: Klucel + Tween-80): 0 of 6

Compound: Cn1c2ccccc2c2[nH]c3ccccc3c(=O)c21
- survivor count [8]: 5 of 6

Compound: O=C(OC1CCCc2ccccc21)c1ccc(N=Nc2ccccc2)cc1 (stereo not drawn)
- survivor count [10]: 6 of 6

Compound: CCCCCC(Cn1ccnc1)c1ccccc1Br (stereo not drawn)
- survivor count [11]: 2 of 6 and 4 of 6
- survivor count (dose: 400.0 mg/kg/injection, schedule: Q04DX003 (ip), vehicle: saline with Tween-80): 3 of 6

Compound: COc1cc(N)ccc1Nc1c2ccccc2nc2ccccc12
- T/C (dose: 50.0 mg/kg/injection, schedule: Q04DX002 (ip), vehicle: distilled water + Tween-80): 135 % of control
- survivor count (dose: 200.0 mg/kg/injection, schedule: Q04DX002 (ip), vehicle: distilled water + Tween-80): 3 of 5
- survivor count (dose: 400.0 mg/kg/injection, schedule: Q04DX002 (ip), vehicle: distilled water + Tween-80): 0 of 5 and 1 of 6

Compound: C/C=C1/CC2C=Nc3cc(O)c(OC)cc3C(=O)N2C1 (stereo not drawn)
- T/C (dose: 0.25 mg/kg/injection, schedule: Q01DX005 (ip), vehicle: saline + alcohol): 135 % of control
- T/C (dose: 0.5 mg/kg/injection, schedule: Q01DX005 (ip), vehicle: saline + alcohol): 145 % of control
- survivor count (dose: 2.0 mg/kg/injection, schedule: Q01DX005 (ip), vehicle: saline + alcohol): 6 of 6
- T/C (dose: 800.0 micrograms/kg/injection, schedule: Q01DX005 (ip), vehicle: saline + alcohol): 139 % of control
- T/C (dose: 1000.0 micrograms/kg/injection, schedule: Q01DX005 (ip), vehicle: saline + alcohol): 141 % of control

Compound: COc1ccc(CC2C(=O)NC(C)C(=O)N(C)C3Cc4ccc(cc4)Oc4cc(ccc4OC)CC(C(=O)NC(C)C(=O)NC(C)C(=O)N2C)N(C)C3=O)cc1 (stereo not drawn)
- T/C (dose: 0.25 mg/kg/injection, schedule: Q01DX009 (ip), vehicle: none): 143 % of control

Compound: Cc1ccc(NSC(Cl)(Cl)Cl)cc1
- survivor count [9]: 5 of 6
- survivor count (dose: 400.0 mg/kg/injection, schedule: Q01DX009 (ip), vehicle: saline): 3 of 6

Compound: O=C1NC(=O)/C(=C/C=C/c2ccccc2)S1
- T/C [6]: 128 and 131 % of control
- T/C [7]: 130 and 138 % of control [4 of 6 alive]

Compound: Cn1c2c(c(=O)c3c4[nH]c5c(c(=O)c4ccc31)CCCC5)CCCC2
- survivor count [11]: 6 of 6

Compound: ClCc1cccc2c(CCl)cccc12
- T/C (dose: 50.0 mg/kg/injection, schedule: Q01DX009 (ip), vehicle: saline with Tween-80): 125 % of control
- survivor count [6]: 3 of 6

Compound: OC(CI)C(O)C(O)C(O)CI (stereo not drawn)
- T/C (dose: 300.0 mg/kg/injection, schedule: Q01DX009 (ip), vehicle: saline with Tween-80): 140 % of control

Compound: [Cl][Sn]1([Cl])[CH2]CCCCCC[CH2][Sn]([Cl])([Cl])[CH2]CCCCCC[CH2]1
- survivor count [5]: 6 of 6

Compound: CCN(CC)CCCC(C)Nc1cc(/C=C/c2ccc(Cl)cc2)nc2cc(N(C)C)ccc12 (stereo not drawn)
- survivor count [12]: 1 of 6
- survivor count [13]: 0 of 6
- survivor count [14]: 0 of 6
- survivor count [15]: 0 of 6

Compound: Cc1cc[n+](C2=C(Nc3ccc(Cl)cc3C)C(=O)c3ccccc3C2=O)cc1
- survivor count (dose: 120.0 mg/kg/injection, schedule: Q01DX005 (ip), vehicle: saline with Tween-80): 0 of 6
- survivor count [10]: 0 of 6

Compound: CCSc1nc2ccc(N3C(=O)C=CC3=O)cc2s1
- survivor count [13]: 0 of 6
- survivor count [14]: 0 of 6
- survivor count [15]: 0 of 6

Compound: CCCCC1NNC(CCCC)NN1 (stereo not drawn)
- survivor count [15]: 0 of 6

Compound: COC(=O)C(Sc1ccc(Cl)cc1)C1SC(=S)N(C)C1=O (stereo not drawn)
- T/C (dose: 12.5 mg/kg/injection, schedule: Q01DX009 (ip), vehicle: saline with Tween-80): 135 % of control

Compound: COc1cc2c(c(OC)c1OC)-c1ccc(S(C)(=O)=O)c(=O)cc1[C@@H](NC(C)=O)CC2
- T/C (dose: 6.25 mg/kg/injection, schedule: Q01DX009 (ip), vehicle: Klucel (hydroxypropylcellulose) (HPC)): 125 % of control
- T/C [12]: 139 % of control
- survivor count [13]: 5 of 6 and 6 of 6
